According to paper PMC7435699:
These are yes or no findings as the source states them, for the method shown. Binding seen in cells or lysates may run through a third protein. Some results given as binding are weak or reduced against the parent protein; the word gives no strength.

Sequences of proteins named here, by UniProt entry; tags and fusion partners are left off.
UniProt O75365: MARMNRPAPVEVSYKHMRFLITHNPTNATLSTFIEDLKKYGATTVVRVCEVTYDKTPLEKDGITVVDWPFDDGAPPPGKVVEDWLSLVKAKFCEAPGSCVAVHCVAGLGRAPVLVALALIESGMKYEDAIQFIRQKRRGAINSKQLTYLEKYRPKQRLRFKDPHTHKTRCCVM

Molecular target: human PRL3 fused to HA (human) (UniProt O75365)
Test: co-IP; A375 cells stably expressing PRL3-HA or empty vector, lysed in RIPA buffer; anti-HA-tag magnetic beads; blot with anti-DDX21

B1: DDX21 (human, endogenous in A375 melanoma cells) (protein, UniProt Q9NR30 1-783)
chain: MPGKLRSDAGLESDTAMKKGETLRKQTEEKEKKEKPKSDKTEEIAEEEETVFPKAKQVKKKAEPSEVDMNSPKSKKAKKKEEPSQNDISPKTKSLRKKKEPIEKKVVSSKTKKVTKNEEPSEEEIDAPKPKKMKKEKEMNGETREKSPKLKNGFPHPEPDCNPSEAASEESNSEIEQEIPVEQKEGAFSNFPISEETIKLLKGRGVTFLFPIQAKTFHHVYSGKDLIAQARTGTGKTFSFAIPLIEKLHGELQDRKRGRAPQVLVLAPTRELANQVSKDFSDITKKLSVACFYGGTPYGGQFERMRNGIDILVGTPGRIKDHIQNGKLDLTKLKHVVLDEVDQMLDMGFADQVEEILSVAYKKDSEDNPQTLLFSATCPHWVFNVAKKYMKSTYEQVDLIGKKTQKTAITVEHLAIKCHWTQRAAVIGDVIRVYSGHQGRTIIFCETKKEAQELSQNSAIKQDAQSLHGDIPQKQREITLKGFRNGSFGVLVATNVAARGLDIPEVDLVIQSSPPKDVESYIHRSGRTGRAGRTGVCICFYQHKEEYQLVQVEQKAGIKFKRIGVPSATEIIKASSKDAIRLLDSVPPTAISHFKQSAEKLIEEKGAVEALAAALAHISGATSVDQRSLINSNVGFVTMILQCSIEMPNISYAWKELKEQLGEEIDSKVKGMVFLKGKLGVCFDVPTASVTEIQEKWHDSRRWQLSVATEQPELEGPREGYGGFRGQREGSRGFRGQRDGNRRFRGQREGSRGPRGQRSGGGNKSNRSQNKGQKRSFSKAFGQ
  binding: binds
